# From PMC3141063
# Sequences of proteins named here, by UniProt entry; tags and fusion partners are left off. A change or cut given only in a name is not applied to a line headed by its entry.
# UniProt Q583I9: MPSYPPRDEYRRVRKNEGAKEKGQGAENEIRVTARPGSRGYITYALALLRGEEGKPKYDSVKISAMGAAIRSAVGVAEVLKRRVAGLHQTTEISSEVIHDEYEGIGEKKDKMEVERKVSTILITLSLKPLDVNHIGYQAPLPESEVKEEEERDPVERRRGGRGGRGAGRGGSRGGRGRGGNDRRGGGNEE
# UniProt Q583J0: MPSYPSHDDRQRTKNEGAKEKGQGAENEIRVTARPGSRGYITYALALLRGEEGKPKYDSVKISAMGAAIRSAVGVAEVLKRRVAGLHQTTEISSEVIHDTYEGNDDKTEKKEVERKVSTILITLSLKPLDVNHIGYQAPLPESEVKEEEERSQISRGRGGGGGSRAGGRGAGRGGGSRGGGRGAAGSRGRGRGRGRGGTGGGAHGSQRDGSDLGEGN
# UniProt Q38E63: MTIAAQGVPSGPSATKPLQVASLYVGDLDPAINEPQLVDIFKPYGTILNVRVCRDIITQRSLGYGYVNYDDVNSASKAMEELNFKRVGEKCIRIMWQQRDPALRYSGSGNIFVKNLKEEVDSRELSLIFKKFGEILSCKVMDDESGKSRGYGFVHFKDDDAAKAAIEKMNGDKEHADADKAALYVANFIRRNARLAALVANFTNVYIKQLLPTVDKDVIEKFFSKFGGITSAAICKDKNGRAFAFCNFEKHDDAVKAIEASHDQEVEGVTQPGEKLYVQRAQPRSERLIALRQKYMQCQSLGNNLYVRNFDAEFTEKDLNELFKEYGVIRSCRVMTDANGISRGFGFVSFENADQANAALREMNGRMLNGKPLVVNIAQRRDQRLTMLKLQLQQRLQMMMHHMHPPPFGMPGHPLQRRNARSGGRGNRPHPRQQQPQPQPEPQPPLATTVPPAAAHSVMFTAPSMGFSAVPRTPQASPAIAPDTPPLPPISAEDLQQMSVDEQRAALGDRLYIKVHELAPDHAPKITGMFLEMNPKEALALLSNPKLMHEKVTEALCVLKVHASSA
# UniProt Q38DU2: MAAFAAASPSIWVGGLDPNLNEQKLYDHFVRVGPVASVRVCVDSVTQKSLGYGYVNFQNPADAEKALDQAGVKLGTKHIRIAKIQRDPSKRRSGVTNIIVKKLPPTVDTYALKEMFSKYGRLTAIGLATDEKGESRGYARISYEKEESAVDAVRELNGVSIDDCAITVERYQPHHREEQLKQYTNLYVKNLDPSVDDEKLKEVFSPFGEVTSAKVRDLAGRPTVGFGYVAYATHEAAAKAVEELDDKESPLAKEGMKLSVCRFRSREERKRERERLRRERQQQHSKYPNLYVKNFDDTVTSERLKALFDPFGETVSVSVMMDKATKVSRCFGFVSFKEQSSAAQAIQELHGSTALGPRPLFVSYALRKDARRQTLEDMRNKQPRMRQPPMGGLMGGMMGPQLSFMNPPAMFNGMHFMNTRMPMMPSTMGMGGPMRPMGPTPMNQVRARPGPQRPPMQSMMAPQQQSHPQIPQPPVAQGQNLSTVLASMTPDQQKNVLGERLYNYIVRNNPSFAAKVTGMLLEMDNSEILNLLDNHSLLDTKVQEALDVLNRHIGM
# UniProt Q585M4: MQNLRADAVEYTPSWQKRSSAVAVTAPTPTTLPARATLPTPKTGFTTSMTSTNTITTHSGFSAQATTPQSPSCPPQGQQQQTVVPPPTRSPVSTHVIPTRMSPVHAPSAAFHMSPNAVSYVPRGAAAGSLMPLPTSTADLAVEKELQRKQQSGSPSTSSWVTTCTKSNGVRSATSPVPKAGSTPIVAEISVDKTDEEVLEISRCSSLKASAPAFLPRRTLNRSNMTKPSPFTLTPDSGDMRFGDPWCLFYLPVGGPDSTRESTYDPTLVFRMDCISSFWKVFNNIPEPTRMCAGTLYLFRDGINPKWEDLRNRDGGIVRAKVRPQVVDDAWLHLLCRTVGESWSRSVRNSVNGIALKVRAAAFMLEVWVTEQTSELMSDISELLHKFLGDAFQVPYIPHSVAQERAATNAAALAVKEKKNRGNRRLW
# No constants are given. Whether binding was seen depends on the method and setting. Binding seen in cells or lysates may run through a third protein. A yes stands for co-enrichment or nearness to the bait. Other partners may have been found. For some assays here: No binding means not detected with the bait.
# Legend:
# Experiment in all cases: affinity purification with mass spectrometry; tandem affinity purification of N-terminally PTP-tagged Alba proteins (in situ tagged) from procyclic T. brucei extract under native conditions; TEV and EGTA eluates on SDS-PAGE, bands digested with trypsin, LC-MS/MS
# [1] = molecular target: T1, PTP-Alba1 (Trypanosoma brucei) (UniProt Q385X1)
# T1 sequence: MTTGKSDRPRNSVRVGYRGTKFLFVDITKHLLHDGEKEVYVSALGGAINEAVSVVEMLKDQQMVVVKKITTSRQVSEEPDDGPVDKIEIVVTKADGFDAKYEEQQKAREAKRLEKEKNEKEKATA
# [2] = molecular target: T2, PTP-Alba2 (Trypanosoma brucei) (UniProt Q385X2)
# T2 sequence: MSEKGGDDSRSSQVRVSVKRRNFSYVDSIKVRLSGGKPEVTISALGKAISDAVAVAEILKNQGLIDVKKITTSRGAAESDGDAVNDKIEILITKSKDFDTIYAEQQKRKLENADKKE
# [3] = molecular target: PTP-Alba3 (Trypanosoma brucei) (UniProt Q583I9)
# [4] = molecular target: PTP-Alba4 (Trypanosoma brucei) (UniProt Q583J0)
Substance,binding [1],binding [2],binding [3],binding [4]
poly(A)-binding protein PABP1 (from UniProt Q38E63),binds,binds,binds,binds
Alba4 (from UniProt Q583J0),binds,binds,–,–
Alba3 (from UniProt Q583I9),binds,binds,–,–
Scd6,no binding,no binding,–,–

# The next lines start with the values.
binding [1],binding [2],binding [3],binding [4],Substance
binds,binds,binds,binds,poly(A)-binding protein PABP2 (from UniProt Q38DU2)
no binding,no binding,–,–,DHH1
–,binds,–,–,Eukaryotic translation initiation factor 4E4 (from UniProt Q585M4)
